Drawing on article PMC8961561, this text covers binding for three substances.

Sequences of proteins named here, by UniProt entry; tags and fusion partners are left off. Residues count along the entry.
UniProt P16410, residues 36-223: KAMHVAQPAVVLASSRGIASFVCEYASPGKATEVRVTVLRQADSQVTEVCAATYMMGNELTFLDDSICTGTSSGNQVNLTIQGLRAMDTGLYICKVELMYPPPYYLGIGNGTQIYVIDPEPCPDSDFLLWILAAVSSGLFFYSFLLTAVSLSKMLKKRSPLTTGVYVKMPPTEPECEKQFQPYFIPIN
UniProt P37173, residues 23-567: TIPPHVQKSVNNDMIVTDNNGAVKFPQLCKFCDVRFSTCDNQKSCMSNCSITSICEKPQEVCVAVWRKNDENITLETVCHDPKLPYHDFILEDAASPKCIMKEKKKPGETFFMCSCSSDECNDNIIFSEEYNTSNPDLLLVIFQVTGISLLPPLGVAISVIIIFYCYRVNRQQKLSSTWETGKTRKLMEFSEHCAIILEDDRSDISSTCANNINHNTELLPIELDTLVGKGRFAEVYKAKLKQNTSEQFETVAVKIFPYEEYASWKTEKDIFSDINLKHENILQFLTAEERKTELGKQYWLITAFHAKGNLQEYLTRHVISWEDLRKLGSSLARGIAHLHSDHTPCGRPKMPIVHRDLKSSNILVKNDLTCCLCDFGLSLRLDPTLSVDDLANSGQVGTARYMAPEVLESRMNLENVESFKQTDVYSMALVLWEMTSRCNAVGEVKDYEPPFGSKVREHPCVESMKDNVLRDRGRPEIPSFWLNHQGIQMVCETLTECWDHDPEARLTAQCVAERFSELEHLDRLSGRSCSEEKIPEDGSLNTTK
UniProt P80188, residues 21-198: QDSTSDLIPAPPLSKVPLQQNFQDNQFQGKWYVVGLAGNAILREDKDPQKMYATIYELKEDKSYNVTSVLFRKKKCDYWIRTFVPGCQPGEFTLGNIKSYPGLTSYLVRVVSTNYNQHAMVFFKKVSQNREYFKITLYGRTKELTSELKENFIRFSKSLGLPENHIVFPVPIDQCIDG

These are yes or no findings as the source states them, for the method shown. Some binding calls cover weakened binding; strength is not graded here.

Common to all, as to assay: peptide or protein array; PEPscan: overlapping dodecapeptides (two amino acid shift) spanning the complete sequence of one partner on a cellulose membrane; saturated with 3% non-fat dry milk/3% BSA; incubated with the purified protein partner (4 mg/mL, 4 °C, overnight); antibody against that protein, HRP-conjugated secondary antibody, ECL; both purified
Test [1] addresses T1, NGAL fragment ….
T1 sequence (peptide): NAILREDKDPQKMY

For test [2], the target named is T2, NGAL fragment ….
T2 sequence (peptide): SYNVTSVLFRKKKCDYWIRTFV
The source holds these as a separate data set.

Test [3] addresses T3, NGAL fragment ….
T3 sequence (peptide): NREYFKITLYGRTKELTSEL
The source holds these as a separate data set.

The target in test [4] is T4, NGAL fragment ….
T4 sequence (peptide): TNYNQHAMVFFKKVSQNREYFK
This is another data set of the same source.

Test [5] concerns the target T5, TGFβ3 fragment ….
T5 sequence (peptide): YIDFRQDLGWKWVHEPKG

For test [6], the target named is T6, CTLA4 fragment ….
T6 sequence (peptide): TEVRVTVLRQADSQVT

In test [7] the target is T7, CTLA4 fragment ….
T7 sequence (peptide): EYASPGKATEVRVT
This is another data set of the same source.

Regarding CTLA-4 (from UniProt P16410 36-223), the binding entry in test [1], in test [2], in test [3] and in test [4] was “binds” each time.
In the case of “Tumor Growth Factor Receptor (TGFbetaR2) (from UniProt P37173 23-567)”, the binding entry in test [5] is on record as “binds”.
As to “Neutrophil Gelatinase-Associated Lipocalin (NGAL) (from UniProt P80188 21-198)”, the binding result in test [6] and in test [7] was “binds” in each case.
